Assay results published in patent US6518401B2, “Tumor necrosis factor stimulated gene 6 (TSG-6) protein” (New York University, priority 1991, dated 2003).
At least one structure is not confirmed: it was looked up by name or label, or the drawing left a doubt.

System: TSG-37 (MT-II) mRNA
Assay: Northern blot analysis of TSG mRNA levels in FS-4 cells
Assay type: cell-based, human
Conditions: growth arrested FS-4 cells, 2 h; TNF 20 ng/ml, CHX 10 ug/ml, IFN-β 500 U/ml, IFN-γ 100 U/ml, IL-1-α 1 ng/ml, EGF 25 ng/ml, TGF-β 2 ng/ml, poly(I).poly(C) 50 ug/ml, TPA 100 ng/ml, A23187 1 uM, forskolin 10 uM, dBcAMP 100 uM, IBMX 100 uM
Protocol: The human diploid FS-4 foreskin fibroblast cell line (Vilcek, J. et al, Proc. Natl. Acad. Sci. USA 70:3909-3913 (1973)) was used at passage level 15 in all experiments. FS-4 cells were grown in Eagle minimal essential medium (E-MEM) supplemented with 6 mM HEPES, 3 mM Tricine, 50 μg/ml gentamicin, and 5% heat inactivated (56° C., 30 min) fetal bovine serum (FBS; GIBCO Laboratories, Grand Island, N.Y.). For experiments, 4×10^6 cells were seeded in 175 cm^2 Falcon flasks, incubated at 37° C., and allowed to grow to confluence over 6 days. The confluent monolayers were washed once with phosphate buffered saline and replenished with E-MEM containing […] FBS. The cultures were incubated in this medium for another 72 h at 37° C. to let the cells become quiescent and then treated with the appropriate agents, as specified herein.
Cytoplasmic RNA was fractionated on a 1% agarose gel containing formaldehyde and blotted onto Zeta-probe blotting membranes (Bio-Rad Laboratories, Richmond, Calif.). Cytoplasmic RNA was loaded at 10 μg/lane. […] Northern blots were quantified with a laser densitometer. […]
Table 3 provides a summary of a large number of experiments in which levels of mRNAs corresponding to the 8 distinct TSG cDNAs were determined in FS-4 cells exposed to various agents by Northern blot analysis. […]

CCCC(=O)Nc1ncnc2c1ncn2[C@@H]1O[C@@H]2COP(=O)(O)O[C@H]2[C@H]1OC(=O)CCC [dBcAMP, N^6-2′-O-dibutyl adenosine cyclic 3′,5′-monophosphate]
Relative Increase in mRNA Level TSG-37 (MT-II): 0/+
